We go through four molecules from US20240317834A1, “COMPOSITIONS AND METHODS FOR NEUROLOGICAL DISEASES” (CODA BIOTHERAPEUTICS, INC., priority 2020, published 2024).

B1: CODA282: engineered chimeric LGIC receptor, Y115D in SEQ ID NO: 33 (protein)
chain: MRCSPGGVWLALAASLLHVSLQGEFQRKLYKELVKNYNPLERPVANDSQPLTVYFSLSLLQIMDVDEKNQVLTTNIWLQMSWTDHYLQWNVSEYPGVKTVRFPDGQIWKPDILLDNSADERFDATFHTNVLVNSSGHCQYLPPGIFKSSCPMDLKNFPMDVQTCKLKFGSWSYGGWSLDLQMQEADISGYIPNGEWDLVGIPGKRSERFYECCKEPYPDVTFTVTMRRRMGYYLIQMYIPSLLIVILSWISFWINMDAAPARVGLGITTVLTMTTQSSGSRASLPKVSYVKAIDIWMAVCLLFVFSALLEYAAVNFVSRQHKELLRFRRKRRHHKSPMLNLFQEDEAGEGRFNFSAYGMGPACLQAKDGISVKGANNSNTTNPPPAPSKSPEEMRKLFIQRAKKIDKISRIGFPMAFLIFNMFYWIIYKIVRREDVHNQ
modifications: synthetic sequence of chimeric LGIC
B2: CODA283: engineered chimeric LGIC receptor, Y115E_N379K in SEQ ID NO: 33 (protein)
chain: B1 chain with D115E, N379K
modifications: synthetic sequence of chimeric LGIC
B3: CODA335: engineered chimeric LGIC receptor, L131T in SEQ ID NO: 33 (protein)
chain: B1 chain with D115Y, L131T
modifications: synthetic sequence of chimeric LGIC
B4: CODA333: engineered chimeric LGIC receptor, L131S in SEQ ID NO: 33 (protein)
chain: B1 chain with D115Y, L131S
modifications: synthetic sequence of chimeric LGIC

Changes are numbered by the printed parent chain. Numbers in names are those of the source.

The test system of one series is HEK293T cells. Kind of series: Surface localization of HA-tagged engineered receptors by flow cytometry with anti-HA antibody. The settings on record: % HA-tag positive cells, normalized to SEQ ID NO: 33 control. In kind it is cell-based.
As for B1, the “Normalized HA %” value came out at 0.91.
Same read-out and setting: next, B2: 1.16; B3: 2.00.
Same read-out and setting: next, B4: 1.42.

The series is the same for the next values; noted with them: anti-HA MFI, normalized to SEQ ID NO: 33 control.
Regarding B1, the “Normalized HA MFI” value is recorded as 0.74.
Regarding B2, the “Normalized HA MFI” value amounted to 1.00.
The same measure, in the same setting: in the case of B3 it was 0.88; in that of B4, 0.76.

A further series concerns HEK293T cells.
Experiment: not given
Conditions: not given
In kind it is cell-based.
B1: the “Normalized AB %” value amounted to 1.23 and the “Normalized AB MFI” value is on record as 1.04.
For B2, in that order: 1.24 and 1.31.
For B3, in that order: 1.65 and 1.32.
Take B4: the “Normalized AB %” value is given as 1.28 and the “Normalized AB MFI” value is recorded as 1.20.
